Results published in patent publication US20210009750A1, “3D PRINTING COMPOSITION FOR BIOMATERIALS” (TISSIUM SA, priority 2018, published 2021).

How the values were obtained:
[1] = Solvent extraction of BBOT from 3D printed PGSA constructs; details: 3D constructs immersed in extraction solvent 1 mL/10 mg, 18 to 24 hours, solvent exchanged 3 to 6 times
[2] = Solvent extraction of TPO from 3D printed PGSA constructs; details: 3D constructs immersed in extraction solvent 1 mL/10 mg, 18 to 24 hours, solvent exchanged 3 to 6 times

| Structure (SMILES) | Extraction solution concentration BBOT [1] [ppm] | Extraction solution concentration TPO [2] [ppm] |
| --- | --- | --- |
| CC(C)=O [Acetone, acetone] | 442 | 2662 |
| ClCCl [DCM, dichloromethane] | 443 | 2495 |
| CCOCC [DEE, diethyl ether] | 482 | 2762 |
| C[S+](C)[O-] [DMSO, dimethyl sulfoxide] | 494 | 3173 |
| CCOC(C)=O [Ethyl acetate, ethyl acetate] | 461 | 2641 |
| CC(C)O [IPA, isopropyl alcohol] | 395 | 2593 |
| CN1CCCC1=O [NMP, N-Methyl-2-pyrrolidone] | 506 | 2757 |
| C1CCOC1 [THF, tetrahydrofuran] | 461 | 2625 |
| CCO [etOH, ethanol] | 450 | 2779 |
